# Source: publication PMC7819943, “Rice protein-binding microarrays: a tool to detect cis-acting elements near promoter regions in rice”
# Some of the results follow.
# Molecular target: T1, OsSMF1 (Oryza sativa, UniProt Q6ZLB0 1-436)
# T1 sequence: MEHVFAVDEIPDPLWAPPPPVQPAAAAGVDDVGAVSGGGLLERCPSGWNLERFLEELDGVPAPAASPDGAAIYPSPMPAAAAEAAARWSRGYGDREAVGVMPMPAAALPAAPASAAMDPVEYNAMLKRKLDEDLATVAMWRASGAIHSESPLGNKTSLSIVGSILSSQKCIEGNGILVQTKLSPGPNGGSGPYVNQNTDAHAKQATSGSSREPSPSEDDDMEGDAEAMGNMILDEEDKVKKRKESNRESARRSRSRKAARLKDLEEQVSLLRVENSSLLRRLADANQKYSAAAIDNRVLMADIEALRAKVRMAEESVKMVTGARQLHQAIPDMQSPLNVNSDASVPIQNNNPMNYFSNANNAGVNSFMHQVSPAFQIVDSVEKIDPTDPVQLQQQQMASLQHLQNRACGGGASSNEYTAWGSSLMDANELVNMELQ
# Test: protein-binding microarray (RPBM); PBS, 2% BSA, 51.3 ng/ul salmon testes DNA, 50 uM zinc acetate, 200 nM TF, 25 C, 1 h; high values mean tight binding
# Conditions: protein: recombinant; tags: N-terminal polyhistidine and DsRed monomer fusion (pET32a); chain copies: 2; label: CyDye5-dUTP incorporated in the synthesized complementary strand; 3' TTTTT single-stranded linker to array surface; dsDNA, one strand shown
# Summary of the method: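 The binding signal for each feature is its fluorescence intensity in arbitrary units. An Axon 4000B scanner was used to read a custom Agilent array that had been made double-stranded with Cy5-dUTP primer extension, blocked with 2% BSA, incubated at 25 °C for 1 h with 200 nM protein in PBS, 2% BSA, salmon testes DNA and 50 µM zinc acetate, and washed. The protein was an N-terminal polyhistidine–DsRed transcription factor fusion from E. coli BL21-CodonPlus, purified on Ni–NTA.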
row,Sequence,binding signal
1,CGGTGCTGAGTCGTCATCAGTTGATGTTCTCACGAATTCGCGGAGTCACCTAGTGCAG,5100 fluorescence intensity (a.u.)
2,CGTCCCCTGCTTTTGACGTGGCATCCACCTTTGAGCTCTCCGGAGTCACCTAGTGCAG,18300 fluorescence intensity (a.u.)
3,CCCAAAGCTGACGTACAGCACCGACCCGGTCGGCTGCTCGCGGAGTCACCTAGTGCAG,4200 fluorescence intensity (a.u.)
4,GATCGATAGTTGCACGTTCTGACACATGTCATCTGTACCGCGGAGTCACCTAGTGCAG,8110 fluorescence intensity (a.u.)
5,TAGATAGATGCATATTGGGTGCTGGATTTCTTGTGATTTCCGGAGTCACCTAGTGCAG,23000 fluorescence intensity (a.u.)
6,TCGTCCTCCGCCGCCGGACACGTTGTCGTCGAAAGCGTCACGGAGTCACCTAGTGCAG,4840 fluorescence intensity (a.u.)
7,TAATATTTCCTTTCCATTTCACACGTCACAATCCCGTGGGCGGAGTCACCTAGTGCAG,14600 fluorescence intensity (a.u.)
8,CTCCCGCGCGCCGCCGCCTGCTAGTCCCGGAGACACGCGGCGGAGTCACCTAGTGCAG,3480 fluorescence intensity (a.u.)
9,AATTAACTGTATCTGAACATGAAAGCACTACCATACGTCACGGAGTCACCTAGTGCAG,4350 fluorescence intensity (a.u.)
10,TATAGCCGCCCAAGTTATATACAAATGCATGCATGTCATGCGGAGTCACCTAGTGCAG,3170 fluorescence intensity (a.u.)
11,AACTCCAATCTGCGGACGGTACTGGGCCCACGTGTAGACGCGGAGTCACCTAGTGCAG,3660 fluorescence intensity (a.u.)
12,AGGCCCGCACCCGCTGTCACCGCCGCCCACAGCTTCGCCCCGGAGTCACCTAGTGCAG,3400 fluorescence intensity (a.u.)
13,ATCGCCTCGCCGCGGCGACGTCCGCGTGGATTCGCGGTGACGGAGTCACCTAGTGCAG,3640 fluorescence intensity (a.u.)
14,GCTCCCCGGTCTCCGCCGCCGTTCTCTGACATGCCATGCCCGGAGTCACCTAGTGCAG,3200 fluorescence intensity (a.u.)
15,CGTCCTCCTTGGTGACCAGGTTGGGGAAGAGGCGCGTCAGCGGAGTCACCTAGTGCAG,3520 fluorescence intensity (a.u.)
16,TCCCCGCGCCTACGTGTGCGCCATCGCCTACCGCATTCAGCGGAGTCACCTAGTGCAG,9510 fluorescence intensity (a.u.)
17,GTCTTCTCCCAAAAGAAGCCCACGTATTCCATATTTCCGTCGGAGTCACCTAGTGCAG,3840 fluorescence intensity (a.u.)
18,AATCCCAAAACTTTCATGTTCAATTTCATACAAACAATTCCGGAGTCACCTAGTGCAG,3240 fluorescence intensity (a.u.)
19,GCTTAGTGTTGAGATGATCCATGTCATCTCGTGCTAGCTACGGAGTCACCTAGTGCAG,7710 fluorescence intensity (a.u.)
20,CGCGAGCCTTGCGCGTTGGGCCTGGCACGTGTGCGGCCCACGGAGTCACCTAGTGCAG,3610 fluorescence intensity (a.u.)
21,GAACCGAACGCGACGCAGCGCGGCGAAGTCAGCAGCTTCCCGGAGTCACCTAGTGCAG,4580 fluorescence intensity (a.u.)

# Random excerpt: three entries already listed, in no set order.
row,Sequence,binding signal
6,TCGTCCTCCGCCGCCGGACACGTTGTCGTCGAAAGCGTCACGGAGTCACCTAGTGCAG,4840 fluorescence intensity (a.u.)
17,GTCTTCTCCCAAAAGAAGCCCACGTATTCCATATTTCCGTCGGAGTCACCTAGTGCAG,3840 fluorescence intensity (a.u.)
21,GAACCGAACGCGACGCAGCGCGGCGAAGTCAGCAGCTTCCCGGAGTCACCTAGTGCAG,4580 fluorescence intensity (a.u.)

# More results follow.

row,Sequence,binding signal
1,GCTGCCGACGCAGCTCCGGCCACGACCGCCGCCGTGCGTGCGGAGTCACCTAGTGCAG,3920 fluorescence intensity (a.u.)
2,TTCCTTCCCGAGGCCTACGTGTCCCCTCCCGCATCTCCACCGGAGTCACCTAGTGCAG,13000 fluorescence intensity (a.u.)
3,ACTGTCCATTGCATTTGCACGTACGCAGTCATCAACAGATCGGAGTCACCTAGTGCAG,3140 fluorescence intensity (a.u.)
4,CAGTGTTGCCGCCGTCATCCTCCCAGCGCCCTATTCACCTCGGAGTCACCTAGTGCAG,5000 fluorescence intensity (a.u.)
5,AACTGAAAATTTTATACAACTTTTAGGTATTGCAAAGGACCGGAGTCACCTAGTGCAG,31600 fluorescence intensity (a.u.)
6,GCCACGGTCTCGTTGTGATGTTGTGATATTAGGTTCACTGCGGAGTCACCTAGTGCAG,46600 fluorescence intensity (a.u.)
7,GTGATTAGCCCATACTAATTGGGCCATGATGGGATTCTGACGGAGTCACCTAGTGCAG,28300 fluorescence intensity (a.u.)
8,GTGCAGAAGTTACCACGTCATTCCTGGGCGGCTGCCGCGTCGGAGTCACCTAGTGCAG,10800 fluorescence intensity (a.u.)
9,TAACAGAGCTTGTCCGACGAAGCATGATTCAAGTCGTAGCCGGAGTCACCTAGTGCAG,29900 fluorescence intensity (a.u.)
10,TGGAAACTCGCGCGCGCGCGCGAGCGGCGGGCGGCTTTTCCGGAGTCACCTAGTGCAG,16900 fluorescence intensity (a.u.)
11,AAAACCAAGATGAAATCACAGTGCTCTAATTATTTGTATCCGGAGTCACCTAGTGCAG,21600 fluorescence intensity (a.u.)
12,ACTTGCTAGGGTCGCTGTCAGGCGTGACAAACTGAGCAGTCGGAGTCACCTAGTGCAG,3170 fluorescence intensity (a.u.)
13,CGACTTCGACTACGACGAGCTCTTCGTCGACACCACCCCACGGAGTCACCTAGTGCAG,3880 fluorescence intensity (a.u.)
14,AGCACACATACTAGTACTATATGACAAGTCCACGGAGAGCCGGAGTCACCTAGTGCAG,3760 fluorescence intensity (a.u.)
15,CCATCCCATGGTGGGCCGGTTAGTTCTGTTCCTGGGCCATCGGAGTCACCTAGTGCAG,64400 fluorescence intensity (a.u.)
16,GGGGCGGCCGGGCACACGCAGAGCCACGTGGTGGTGGGGCCGGAGTCACCTAGTGCAG,7320 fluorescence intensity (a.u.)
17,CATGGACTCTTGTGACTTTGTGGTGTGAGAGTGGGTTTTGCGGAGTCACCTAGTGCAG,3320 fluorescence intensity (a.u.)
18,CCGTATCGATCGGCGTCACATCTCACATGTACTTCCCCAGCGGAGTCACCTAGTGCAG,6050 fluorescence intensity (a.u.)
19,TCGGAAGTACGTCAAGGAGGGAATCTGTGTCACTCTCCCGCGGAGTCACCTAGTGCAG,3730 fluorescence intensity (a.u.)
20,CTCTCCCCTAGGCCCTCTGACGTAGCCAACTTGCGGAAGCCGGAGTCACCTAGTGCAG,7020 fluorescence intensity (a.u.)
21,TGGGCTCTTAGTTGTCACCATGACTAGCTAGAGTTGTAGCCGGAGTCACCTAGTGCAG,3170 fluorescence intensity (a.u.)
